According to paper PMC4439085:
These are yes or no findings as the source states them, for the method shown. Binding seen in cells or lysates may run through a third protein. Some results given as binding are weak or reduced against the parent protein; the word gives no strength. Where a sequence is shown, tags or fusion partners need not be part of it.

Protein sequences, listed by entry. Tags and fused reporters are not part of them.
UniProt P40235: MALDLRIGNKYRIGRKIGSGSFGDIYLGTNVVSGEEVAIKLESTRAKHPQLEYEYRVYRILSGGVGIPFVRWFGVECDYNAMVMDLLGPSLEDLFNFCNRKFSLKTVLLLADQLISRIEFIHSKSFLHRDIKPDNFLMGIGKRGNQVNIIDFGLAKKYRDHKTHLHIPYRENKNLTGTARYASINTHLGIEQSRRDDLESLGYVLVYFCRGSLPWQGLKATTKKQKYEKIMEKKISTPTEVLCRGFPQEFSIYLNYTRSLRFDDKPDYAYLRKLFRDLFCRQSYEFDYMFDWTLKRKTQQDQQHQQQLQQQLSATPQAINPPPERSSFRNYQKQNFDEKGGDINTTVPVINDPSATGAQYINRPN

Target: T1, Hhp2-TAP (Schizosaccharomyces pombe) (UniProt P40236)
T1 sequence: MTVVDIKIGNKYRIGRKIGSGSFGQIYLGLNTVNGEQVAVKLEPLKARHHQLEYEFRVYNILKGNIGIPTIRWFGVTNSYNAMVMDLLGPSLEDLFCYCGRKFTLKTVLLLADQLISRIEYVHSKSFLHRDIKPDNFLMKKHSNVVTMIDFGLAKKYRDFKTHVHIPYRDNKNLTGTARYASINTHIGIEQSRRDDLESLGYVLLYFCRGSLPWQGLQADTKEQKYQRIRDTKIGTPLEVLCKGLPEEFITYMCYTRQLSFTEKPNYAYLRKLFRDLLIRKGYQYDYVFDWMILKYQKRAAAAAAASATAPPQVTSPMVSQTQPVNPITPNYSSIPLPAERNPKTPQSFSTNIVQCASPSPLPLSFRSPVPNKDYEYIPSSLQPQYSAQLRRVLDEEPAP
Test: co-IP; extracts of cells induced for meiosis; Hhp2-TAP bound to IgG beads, Hhp1-PK9 detected by Western blotting with anti-PK antibody

binding: binds
Substance: Hhp1-PK9 (from UniProt P40235 1-365) (enzyme)
